PubChem BioAssay AID652243, Drosophila RNAi Screening Center | 2013

- Purpose: 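Fly genes required for human androgen receptor driven transcription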 (primary screen)
- Cell system: Drosophila S2R+ cells
- Reagents: long dsRNA against Drosophila genes
- Duration: 72 h (48 h, then 24 h hormone)
- Conditions: synthetic androgen R1881 at 10 nM for 24 h
- Read-out: 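Per-well raw luminescence of the androgen-driven firefly reporter and of the Renilla control, two replicates each, without normalisation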
- Reading the numbers: firefly reporter light: higher = more light from androgen-responsive reporter; Renilla control light: higher = more constitutive control signal (cell number, transfection)
- Rule for the call: 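Across duplicate plates, a knock-down whose log firefly/Renilla ratio shifted a set fold down or up from the GFP/LacZ control mean was a hit; the downward cut appears as both 1.5 and 3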
- Meaning of the calls: active = hit: reporter lowered or raised; inactive = no hit
The screen tested about 24,000 reagents; shown is an unselected part of those with a known target gene and a result. Over the whole deposit, 246 (1%) were called active. 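Plates not normalised; calls are printed but the firefly/Renilla ratio behind them is not deposited; fold cut for lowering reported inconsistently.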 The raw values are shown without normalisation. A plus sign joins genes that one reagent is predicted to hit. Not stated in the record: the amount of reagent.

gene knocked down	dsRNA	firefly reporter light, replicate 1	firefly reporter light, replicate 2	Renilla control light, replicate 1	Renilla control light, replicate 2	Outcome
PQBP1	DRSC14393	44782	66682	3.93e5	4.90e5	inactive
TyrRII	DRSC15150	39935	50181	1.33e6	1.67e6	active
TyrRII	DRSC25254	6.12e5	8.11e5	1.02e6	1.07e6	inactive
CG12848	DRSC04128	4.06e5	4.40e5	2.07e6	1.92e6	inactive
Prp31	DRSC10735	8.93e5	8.02e5	1.27e6	1.41e6	inactive
CG40470	DRSC37732	6.31e5	7.09e5	1.65e6	1.98e6	inactive
Obp99b	DRSC16264	61464	1.13e5	1.60e6	2.38e6	inactive
Obp99b	DRSC27754	2.45e5	2.42e5	4.77e5	6.82e5	inactive
CG32447	DRSC11732	88650	1.01e5	1.16e6	8.12e5	inactive
CG32447	DRSC11805	2.09e5	2.79e5	3.22e6	2.34e6	inactive
dsh	DRSC19803	6.37e5	4.50e5	3.52e6	3.29e6	inactive
dsh	DRSC39144	6.85e5	5.68e5	1.12e6	9.35e5	inactive
CG13285	DRSC09960	3.04e5	1.58e5	2.08e6	1.84e6	inactive
SIFa	DRSC04480	2.99e5	4.36e5	1.77e6	1.78e6	inactive
CG11085	DRSC19374	4.23e5	4.46e5	3.82e6	3.77e6	inactive
CG11085	DRSC22832	4.03e5	4.18e5	1.23e6	1.32e6	inactive
CG11085	DRSC25203	9.10e5	9.25e5	1.44e6	1.64e6	inactive
CG9132	DRSC20159	51201	96190	4.81e5	4.95e5	inactive
Rel	DRSC16819	87354	50618	4.78e5	4.59e5	inactive
Tom20	DRSC10899	55480	93289	9.09e5	6.30e5	inactive
Cpr72Eb	DRSC09870	2.80e5	2.14e5	2.75e6	2.54e6	inactive

Active calls, among the entries above:
gene knocked down	dsRNA	firefly reporter light, replicate 1	firefly reporter light, replicate 2	Renilla control light, replicate 1	Renilla control light, replicate 2	Outcome
TyrRII	DRSC15150	39935	50181	1.33e6	1.67e6	active

More records follow.
gene knocked down	dsRNA	firefly reporter light, replicate 1	firefly reporter light, replicate 2	Renilla control light, replicate 1	Renilla control light, replicate 2	Outcome
CG8664	DRSC20116	4.03e5	2.81e5	2.58e6	2.63e6	inactive
CG12849	DRSC04129	5.39e5	4.03e5	2.75e6	1.89e6	inactive
CG10984	DRSC09817	1.15e6	9.14e5	1.46e6	1.76e6	inactive
CG10984	DRSC28387	4.44e5	1.01e6	1.16e6	1.64e6	inactive
CtsL4	DRSC02849	1.96e5	3.20e5	1.51e6	1.57e6	inactive
CG14104	DRSC10106	3.27e5	2.34e5	2.17e6	2.94e6	inactive
CG6333	DRSC10626	3.28e5	2.24e5	3.68e6	3.01e6	inactive
Tdc1	DRSC04942	86601	59224	1.31e5	1.89e5	inactive
CG7550	DRSC10875	3.22e5	2.24e5	3.42e6	1.68e6	inactive
odd	DRSC23024	5.84e5	8.16e5	9.87e5	1.62e6	inactive
Toll-6	DRSC11304	2.37e5	1.67e5	2.03e6	2.02e6	inactive
CG6830	DRSC16124	2.85e5	3.48e5	3.33e6	3.22e6	inactive
CG6830	DRSC27278	2.18e5	2.19e5	5.42e5	5.63e5	inactive
CR31822	DRSC01510	1.43e5	1.59e5	5.20e5	5.16e5	inactive
CG32767	DRSC18386	64450	72206	2.04e6	1.76e6	inactive
CG32767	DRSC23721	5.45e5	8.79e5	9.49e5	1.25e6	inactive
CG14607	DRSC12551	1.18e5	1.26e5	2.26e6	1.80e6	inactive
mus81	DRSC18180	2.94e5	2.74e5	4.83e6	3.20e6	inactive
mus81	DRSC18644	4.28e5	3.72e5	1.59e6	2.87e6	inactive
CG10863	DRSC08145	1.00e6	9.07e5	7.53e5	7.86e5	inactive
CG9399	DRSC16488	1.68e5	1.52e5	3.79e6	3.06e6	inactive
Tbc1d8-9	DRSC11820	81457	53168	2.44e5	2.98e5	inactive
klu	DRSC11357	1.90e5	1.93e5	2.16e6	1.83e6	inactive
klu	DRSC26367	3.34e5	3.57e5	5.05e5	5.30e5	inactive
Nha2	DRSC14689	1.69e5	1.76e5	2.71e6	2.24e6	inactive
Nha2	DRSC15619	8666	23289	83118	1.26e5	inactive
Nha2	DRSC15623	1.23e5	1.60e5	2.19e6	2.62e6	inactive
Ada2a + Polr2D	DRSC16206	38798	51273	6.11e5	7.25e5	inactive
Ada2a + Polr2D	DRSC21598	1.19e6	1.12e6	2.67e6	3.14e6	inactive
apn	DRSC15124	1.41e5	1.19e5	2.02e6	1.95e6	inactive
CycA	DRSC09132	32264	33545	3.23e5	3.89e5	active
CycA	DRSC11123	72764	1.56e5	5.82e5	6.78e5	active
CycA	DRSC36992					active
CG3655	DRSC18181	1.98e5	2.58e5	3.78e6	3.21e6	inactive
CG3655	DRSC18477	1.11e5	1.82e5	2.64e6	2.39e6	inactive
CG3655	DRSC22688	3.27e5	2.61e5	1.51e6	1.43e6	inactive
nAChRalpha3	DRSC18800	2.49e5	2.33e5	2.58e6	3.54e6	inactive
nAChRalpha3	DRSC25751	6.98e5	5.28e5	5.85e5	6.54e5	inactive
